According to publication PMC11736007:
Results are given in words; binding and its absence hold for the method and conditions named. Binding seen in cells or lysates may run through a third protein. Some binding calls cover weakened binding; strength is not graded here.

Sequences of proteins named here, by UniProt entry; tags and fusion partners are left off.
UniProt Q96D31: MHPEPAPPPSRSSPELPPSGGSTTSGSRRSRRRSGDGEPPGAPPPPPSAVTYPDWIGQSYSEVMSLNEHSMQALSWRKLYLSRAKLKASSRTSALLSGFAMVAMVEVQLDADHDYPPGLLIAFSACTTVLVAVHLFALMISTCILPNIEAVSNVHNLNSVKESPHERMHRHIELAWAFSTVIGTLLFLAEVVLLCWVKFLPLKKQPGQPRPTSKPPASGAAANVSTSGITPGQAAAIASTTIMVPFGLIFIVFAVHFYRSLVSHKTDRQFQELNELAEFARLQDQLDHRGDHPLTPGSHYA

Assays:
Orai1α-eGFP [1] = target: Orai1α-eGFP (UniProt Q96D31); test: FRET or BRET; acceptor photobleaching FRET in living Orai1-KO MCF7 cells; eGFP donor on Orai1, mCherry acceptor on SPCA2; nine ROIs a cell (cytosol, Golgi, plasma membrane); confocal microscope, Hepes-buffered saline
Orai1α-eGFP [2] = target: Orai1α-eGFP (UniProt Q96D31); test: co-IP; Orai1-KO MCF7 cells co-transfected with an Orai1 variant and mCherry-SPCA2; lysis in 1% IGEPAL CA-630 buffer pH 8; immunoprecipitation with anti-Orai1 antibody and protein A-agarose at 4 °C overnight; Western blot with anti-mCherry; signal normalised to input and to immunoprecipitated Orai1

- binding (Orai1α-eGFP [1]): binds
- binding (Orai1α-eGFP [2]): binds
B1: mCherry-SPCA2 (protein, UniProt O75185 1-946)
chain: MVEGRVSEFLKKLGFSGGGRQYQALEKDEEEALIDEQSELKAIEKEKKVTALPPKEACKCQKEDLARAFCVDLHTGLSEFSVTQRRLAHGWNEFVADNSEPVWKKYLDQFKNPLILLLLGSALVSVLTKEYEDAVSIATAVLVVVTVAFIQEYRSEKSLEELTKLVPPECNCLREGKLQHLLARELVPGDVVSLSIGDRIPADIRLTEVTDLLVDESSFTGEAEPCSKTDSPLTGGGDLTTLSNIVFMGTLVQYGRGQGVVIGTGESSQFGEVFKMMQAEETPKTPLQKSMDRLGKQLTLFSFGIIGLIMLIGWSQGKQLLSMFTIGVSLAVAAIPEGLPIVVMVTLVLGVLRMAKKRVIVKKLPIVETLGCCSVLCSDKTGTLTANEMTVTQLVTSDGLRAEVSGVGYDGQGTVCLLPSKEVIKEFSNVSVGKLVEAGCVANNAVIRKNAVMGQPTEGALMALAMKMDLSDIKNSYIRKKEIPFSSEQKWMAVKCSLKTEDQEDIYFMKGALEEVIRYCTMYNNGGIPLPLTPQQRSFCLQEEKRMGSLGLRVLALASGPELGRLTFLGLVGIIDPPRVGVKEAVQVLSESGVSVKMITGDALETALAIGRNIGLCNGKLQAMSGEEVDSVEKGELADRVGKVSVFFRTSPKHKLKIIKALQESGAIVAMTGDGVNDAVALKSADIGIAMGQTGTDVSKEAANMILVDDDFSAIMNAVEEGKGIFYNIKNFVRFQLSTSISALSLITLSTVFNLPSPLNAMQILWINIIMDGPPAQSLGVEPVDKDAFRQPPRSVRDTILSRALILKILMSAAIIISGTLFIFWKEMPEDRASTPRTTTMTFTCFVFFDLFNALTCRSQTKLIFEIGFLRNHMFLYSVLGSILGQLAVIYIPPLQRVFQTENLGALDLLFLTGLASSVFILSELLKLCEKYCCSPKRVQMHPEDV
